# From PubChem BioAssay AID2685 (National Center for Advancing Translational Sciences (NCATS), 2010)
# The other results are listed elsewhere or left out. Shown are side measurements of this screen, not its main read-out; they come without a call. Most of these compounds were active or inconclusive in the main read-out, so they are no random draw. Words in brackets tell the shape of the fitted curve; partial curves, single points and poor fits give uncertain potencies.
# Assay: qHTS Assay for Lipid Storage Modulators in Drosophila S3 Cells;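 for cell number change: cells counted by Cell Tracker Red CMTPX staining in the red channel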
# Details: BODIPY lipid droplet fluorescence, 18-24 h; for cell number change: measured here: cell count max response, cells fed with added oleic acid
# In short: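 Laser-scanning cytometry quantifies lipid droplet accumulation (500–530 nm total intensity; droplet/cell object ratio) in oleic acid-fed (400 uM added) Drosophila S3 cells treated with a concentration series. 20 uM Triacsin C defined 100% inhibition.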
# [1] = measured here: lipid fluorescence (Fed channel) AC50, cells fed with added oleic acid
# [2] = measured here: cell number channel AC50, cells fed with added oleic acid
Structure (SMILES),cell number change,AC50 [1],AC50 [2]
COc1ccc(C2/C(=C(\O)c3ccc4c(c3)OCCO4)C(=O)C(=O)N2c2nc(C)c(C(C)=O)s2)cc1 (configuration not stated),-17.4%,"4.11 µM [falling, full curve]",
CSCCC(NC(=O)COc1ccccc1)C(=O)N1CC(C)CC(C)C1 (configuration not stated),0.0695%,"0.651 µM [rising, full curve]","0.461 µM [rising, partial curve]"
O=S(=O)(/N=C(/Nc1ccc(F)cc1F)c1ccccc1)c1ccccc1,-0.262%,"0.731 µM [rising, full curve, poor fit]",
COc1ccc(/C=c2\sc3nc(-c4ccccc4OC)nn3c2=O)c(OC)c1,30.7%,,"10.3 µM [rising, single point]"
Cc1c(C=O)c2ccccc2n1CC(=O)NC(C)c1ccccc1 (configuration not stated),-0.308%,"0.82 µM [falling, full curve]","0.58 µM [falling, full curve]"
COC(=O)C1=C(C)Nc2c(c(=O)n(C)c(=O)n2C)C1c1ccncc1 (configuration not stated),30.1%,"0.058 µM [rising, full curve, poor fit]","0.731 µM [rising, full curve, poor fit]"
O=C(O)c1nnn(-c2cccc(C(F)(F)F)c2)c1-c1ccccc1,-41.5%,"11.6 µM [falling, partial curve]","10.3 µM [falling, single point]"
COc1ccc(OCC(=O)N/N=C/C=C/c2ccccc2)cc1,1.61%,"2.91 µM [rising, full curve, poor fit]",
Cc1ccc(S(=O)(=O)CC(=O)NCc2ccc(Cl)cc2)cc1,0.125%,"0.259 µM [falling, full curve]",
CCOC(=O)C1=C(C)N(C)C(C)=C(C(=O)OCC)C1c1ccc(C(=O)OC)cc1,-17.4%,"1.03 µM [falling, full curve]","0.231 µM [falling, full curve, poor fit]"
COc1ccc(-c2noc(CN(C)S(=O)(=O)c3ccc(C)cc3)n2)cc1,,,"0.13 µM [rising, full curve, poor fit]"
COc1cccc(NC(=S)N(Cc2ccccn2)Cc2ccccc2Cl)c1,,"6.51 µM [rising, single point]",
CCCCCCC(=O)OCC(=O)c1ccc2c(c1)NC(=O)CO2,106%,,"32.6 µM [rising, partial curve, poor fit]"
O=C(NCc1cccnc1)/C(=C/c1ccc(Cl)cc1)NC(=O)c1ccccc1,19.4%,,
CCn1c(SCc2nc(-c3ccccc3)no2)nnc1-c1cccs1,41.7%,"29.1 µM [rising, partial curve]","0.461 µM [rising, full curve]"
COc1ccccc1-c1n[nH]c(=S)o1,-7.47%,"6.51 µM [rising, single point]",
C=CCN1CN=C(NS(=O)(=O)c2ccc(NC(C)=O)cc2)NC1,-12.1%,,
Cc1ccc(CNC(=O)CNC(=S)N(Cc2ccccc2)Cc2ccccc2F)cc1,,,"2.31 µM [rising, single point]"
Cc1nc2nc(C)c(CCC(=O)NCc3ccc4c(c3)OCO4)c(C)n2n1,-1.04%,,"6.51 µM [falling, single point]"
CN(C)C(CNC(=O)CSc1nnc(-c2ccco2)o1)c1ccccc1 (configuration not stated),1.12%,"3.26 µM [rising, single point]",
O=C(CSc1nnc(-c2ccccn2)n1-c1ccccc1)Nc1ccc2c(c1)OCO2,-0.829%,"0.0651 µM [rising, full curve, poor fit]",
Cn1c(CNC(=O)C2CCCCC2)cc2cc(Cl)ccc21,-22%,"4.61 µM [falling, single point]",
COc1ccc(NC(=O)c2cc3c([nH]c4ccccc43)c(C)n2)cc1,8.71%,"0.00461 µM [rising, full curve, poor fit]","1.16 µM [rising, partial curve, poor fit]"
COc1ccccc1-c1cc(C(=O)N2CCN(c3ccc(F)cc3)CC2)no1,18%,"1.64 µM [rising, partial curve]",
Cc1cc2c(C)nc(N/N=C/c3ccccc3)nc2o1,1.75%,"20.6 µM [rising, single point]","3.26 µM [rising, single point]"
O=C1N2CCSC2=NC1(NS(=O)(=O)c1ccccc1)C(F)(F)F (configuration not stated),-38.3%,"6.51 µM [falling, single point]","0.92 µM [falling, full curve]"
COc1cc2c(cc1OC)CN(C(=O)C(CCSC)NS(=O)(=O)c1ccc(C)cc1)CC2 (configuration not stated),37.8%,,"29.1 µM [rising, single point]"
S=c1[nH]ncn1/N=C/c1cccc(Oc2ccccc2)c1,-30.1%,"5.8 µM [rising, partial curve]","20.6 µM [falling, single point]"

Structure (SMILES),cell number change,AC50 [1],AC50 [2]
COCCN(C(=O)c1snc(C(N)=O)c1N)C(C(=O)NC1CCCCC1)c1ccc(OC)c(OC)c1 (configuration not stated),34%,"0.326 µM [rising, full curve]","29.1 µM [rising, single point]"
O=S(=O)(CCc1nc2ccccc2o1)c1ccc(Cl)cc1,13%,"14.6 µM [falling, partial curve]",
Nc1ccccc1Oc1ccc2ccccc2c1,-11.9%,,"6.51 µM [rising, single point]"
O=[N+]([O-])c1cc(C(F)(F)F)ccc1NCCCCNS(=O)(=O)c1ccc(Cl)cc1,,"14.6 µM [falling, partial curve, poor fit]",
Cc1ccc(SSc2cc(C)ccc2N)c(N)c1,-93.3%,"29.1 µM [falling, partial curve, poor fit]","32.6 µM [falling, partial curve, poor fit]"
CS(=O)(=O)N1CCC(C(=O)N2CCN(C(c3ccccc3)c3ccccc3)CC2)CC1,,"0.146 µM [falling, full curve, poor fit]","0.13 µM [falling, full curve]"
O=C(Nc1ccc(F)cc1)c1nc2c(nnn2Cc2cccc3ccccc23)c(=O)[nH]1,42.9%,"23.1 µM [rising, single point]","23.1 µM [rising, single point]"
COc1cccc2c(=O)n(CC(=O)Nc3cccc(F)c3)ccc12,78.2%,"2.31 µM [rising, full curve]","2.31 µM [rising, full curve]"
S=c1nc(NCc2ccc3c(c2)OCO3)c2ccccc2[nH]1,-5.19%,"20.6 µM [falling, single point]",
COC(=O)N1C(=O)[C@](c2ccc(OC)cc2)(C(C)C)N1C(=O)OC,-9.88%,"0.116 µM [falling, full curve, poor fit]",
CCCCCn1ccc(=O)c2c(C(F)(F)F)nccc21,-17.3%,"29.1 µM [falling, single point]",
CCOc1ccccc1OCC(=O)OCC(=O)NNC(=O)c1ccc([N+](=O)[O-])cc1,-13.5%,"6.51 µM [falling, single point]",
COc1ccc(-c2cn(Cc3cccc(OC)c3)nn2)cc1,-9.39%,,
COCCNC(=O)C(c1ccc(C)o1)N(C(=O)C(=O)NC1CCCCC1)c1ccc(F)cc1 (configuration not stated),-3.32%,"0.184 µM [rising, full curve, poor fit]",
Cc1nc2ccc(C(=O)N3CCN(Cc4ccccc4)CC3)cc2[nH]1,-19.2%,,
O=C(O)CC(NS(=O)(=O)Cc1ccccc1)c1cccc([N+](=O)[O-])c1 (configuration not stated),1.3%,"6.51 µM [rising, single point]",
O=C(NCc1ccco1)Nc1cccs1,21.8%,"0.206 µM [falling, single point]",
COC(=O)CNC(=O)CN1C(=O)N(c2cccc(Cl)c2)C(N(O)C(=O)Nc2cccc(Cl)c2)C1(C)C (configuration not stated),-20.4%,,
CCCCC(=O)Nc1ccnc(-c2cccnc2)n1,-43.4%,"32.6 µM [falling, partial curve]","23.1 µM [falling, partial curve]"
COc1ccc(/C=N/Nc2ccc([N+](=O)[O-])cc2)cc1Cn1cc([N+](=O)[O-])cn1,35.3%,"0.461 µM [rising, full curve]","0.184 µM [rising, full curve, poor fit]"
C/C(=N\Nc1ncc(Cl)cc1Cl)c1ccc(N2CCOCC2)cc1,,"11.6 µM [rising, partial curve, poor fit]","0.92 µM [rising, full curve, poor fit]"
Cc1nn(C)c(NC(=O)c2ccc([N+](=O)[O-])cc2)c1Cl,-26.1%,,
CSc1ccccc1C(=O)N1CCN(c2ccc(F)cc2)CC1,10.2%,"0.0058 µM [rising, full curve, poor fit]",
CCN(CC(=O)Nc1ccc(NC(C)=O)cc1)C(=O)CCCc1nc2ccccc2s1,1.19%,"2.91 µM [rising, partial curve, poor fit]","0.00651 µM [rising, full curve, poor fit]"
Cc1ccccc1C(=O)NC1CCN(CC(=O)Nc2c(C)cccc2C)CC1,-17.3%,"10.3 µM [falling, single point]",
CCC(=O)Nc1ccc(NC(=O)CSc2nc3c(c(=O)n(C)c(=O)n3C)n2CC)cc1,6.94%,,
COc1ccc(C2=NOC(C(=O)NCc3cccs3)C2)cc1 (configuration not stated),62.6%,"5.17 µM [rising, partial curve]","29.1 µM [rising, single point]"

# Part of the list above, tab-delimited:
Structure (SMILES)	cell number change	AC50 [1]	AC50 [2]
S=c1[nH]ncn1/N=C/c1cccc(Oc2ccccc2)c1	-30.1%	5.8 µM [rising, partial curve]	20.6 µM [falling, single point]
COCCN(C(=O)c1snc(C(N)=O)c1N)C(C(=O)NC1CCCCC1)c1ccc(OC)c(OC)c1 (configuration not stated)	34%	0.326 µM [rising, full curve]	29.1 µM [rising, single point]
